The results in this text go back to publication PMC4817770.

Protein sequences, listed by entry. Tags and fused reporters are not part of them. Residues count along the entry.
UniProt P48678, residues 1-647: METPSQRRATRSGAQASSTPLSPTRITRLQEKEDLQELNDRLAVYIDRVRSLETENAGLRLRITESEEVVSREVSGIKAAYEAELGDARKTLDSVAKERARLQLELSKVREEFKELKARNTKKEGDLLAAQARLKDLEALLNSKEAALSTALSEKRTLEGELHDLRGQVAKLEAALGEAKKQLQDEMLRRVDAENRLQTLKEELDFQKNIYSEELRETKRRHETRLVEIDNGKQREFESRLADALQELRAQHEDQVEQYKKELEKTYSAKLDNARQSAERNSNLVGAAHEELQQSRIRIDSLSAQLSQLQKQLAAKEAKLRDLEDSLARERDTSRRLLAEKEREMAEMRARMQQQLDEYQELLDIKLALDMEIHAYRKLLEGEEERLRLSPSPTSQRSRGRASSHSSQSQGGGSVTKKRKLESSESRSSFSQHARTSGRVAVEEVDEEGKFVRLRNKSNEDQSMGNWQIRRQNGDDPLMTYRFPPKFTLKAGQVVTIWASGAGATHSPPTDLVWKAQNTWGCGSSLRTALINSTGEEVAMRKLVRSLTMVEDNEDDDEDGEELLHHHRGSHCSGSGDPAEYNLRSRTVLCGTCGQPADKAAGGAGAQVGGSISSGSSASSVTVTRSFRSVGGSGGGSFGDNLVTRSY

The target of this test is lamin A/C (mouse (endogenous in immortalized murine dermal fibroblasts)) (UniProt P48678). As to the kind of experiment: co-IP; endogenous proteins in the soluble lysate of Tmpo WT imMDFs; IP buffer 20 mM Tris-HCl pH 7.5, 150 mM NaCl, 2 mM EGTA, 2 mM MgCl2, 1 mM DTT, 0.5% NP-40, Benzonase; antibodies (lamin A/C N18 or 3A6, LAP2alpha 8C10-1H11, rabbit IgG control) overnight at 4°C; magnetic protein A/G beads; Western blot. For orientation: In western blotting, separated proteins are transferred to a membrane and probed.

No constants are given. Whether binding was seen depends on the method and setting. In cells and extracts the contact can be indirect. Some results given as binding are weak or reduced against the parent protein; the word gives no strength.

B1: lamina-associated polypeptide 2 alpha (protein, UniProt Q61033 1-693)
chain: MPEFLEDPSVLTKDKLKSELVANNVTLPAGEQRKDVYVQLYLQHLTARNRPPLAAGANSKGPPDFSSDEEREPTPVLGSGASVGRGRGAVGRKATKKTDKPRLEDKDDLDVTELSNEELLDQLVRYGVNPGPIVGTTRKLYEKKLLKLREQGTESRSSTPLPTVSSSAENTRQNGSNDSDRYSDNDEGKKKEHKKVKSARDCVPFSELASTPSGAFFQGISFPEISTRPPLGRTELQAAKKVQTTKRDPPRETCTDTALPGKGQTHKLAPGRSLFIPSESSYDRCVEKSSSPSSQREFAARLVSAAASPSLIRETTTTYSKDIVENICRGGKSRAQPLRAEEPGVSDQSVFSSEREVLQESERSQVISPPLAQAIRDYVNSLLVQGGVGSLPGTSDSVPTLDVENICKRLSQSSYQDSESLSPPRKVPRLSEKPARGGDSGSCVAFQNTPGSEHRSSFAKSVVSHSLTTLGVEVSKPPPQHDKIEASEPSFPLHESILKVVEEEWQQIDRQLPSVACRYPVSSIEAARILSVPKVDDEILGFISEATPRAATQASSTESCDKHLDLALCRSYEAAASALQIAAHTAFVAKSLQADISQAAQIINSDPSDAQQALRILNRTYDAASYLCDAAFDEVRMSACAMGSSTMGRRYLWLKDCKISPASKNKLTVAPFKGGTLFGGEVHKVIKKRGNKQ
In the case of B1, the binding result is given as “binds”.
